AC50 data for 36 compounds are collected here from PubChem BioAssay AID1487 (National Center for Advancing Translational Sciences (NCATS), 2009).

Each structure is given as a SMILES string. This is one part of the list. Further columns of the screen follow, without active or inactive calls. Compounds called inactive in the main read-out are mostly missing here. Potencies come from curve fits of mixed quality, noted in brackets.

This test in a line: qHTS Assay for Modulators of Lamin A Splicing. To be noted: HeLa LMNA splicing GFP/RFP minigene ratio, 48 h. An outline of the steps:
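S3 HeLa stable clones carrying a lamin A-EGFP splicing minigene plus DsRed2 were seeded at 600 cells/well in Opti-MEM with 2% FBS, pin-dosed and incubated 48 h at 37°C. Acumen cytometry (488 nm) gave the GFP/RFP total-intensity ratio.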
For orientation: In qHTS, concentration-response curves come from the screen itself.

Setting [1] is: measured here: RFP viability control channel.
The mark [2] stands for this setting: measured here: GFP splicing reporter channel.

By AC50 is commonly meant the concentration at which the activity in the assay is half-maximal. As for `COCC(C)n1c(C)cc(C(=O)COC(=O)c2c(NC(C)=O)sc(C)c2C)c1C` (centres undefined), the AC50 under setting [1] is 3.98 µM [rising, partial curve, poor fit]. Take `COc1ccc(N=C2SC(CC(=O)Nc3ccccc3OC)C(=O)N2Cc2ccco2)cc1` (centres undefined): the AC50 is, setting by setting: under setting [2], 17.8 µM [rising, single point]; under setting [1], 35.5 µM [rising, single point].

Regarding `CC(NC(=O)CCCCCCN1C(=O)c2ccccc2C1=O)c1ccc2c(c1)CCCC2` (centres undefined), the AC50 under setting [1] is 31.6 µM [rising, single point]. As for `CCCNS(=O)(=O)c1ccc(CCC(=O)N2CCN(c3ccc(F)cc3)CC2)cc1`, the AC50 is 14.1 µM [rising, single point] under setting [2] and 20 µM [rising, single point] under setting [1]. On to `COc1cc(Cl)c(C)cc1NC(=O)CSc1ccc(NC(C)=O)cc1`, for which the AC50 under setting [1] was 35.5 µM [rising, single point]. Consider `Cc1ccc2nc(COc3ccccc3NC(=O)C(C)(C)C)cc(=O)n2c1`, for which, under setting [1], the AC50 is 7.08 µM [falling, partial curve, poor fit]. Still for that read-out and setting: under `COc1ccccc1NC(=O)Nc1ccc(Cc2ccncc2)cc1` stands 11.2 µM [rising, single point]. As for `COC(=O)NC(=C(Cl)Cl)S(=O)(=O)c1ccccc1`, the AC50 runs as follows: under setting [2], 3.16 µM [falling, partial curve]; under setting [1], 0.501 µM [falling, single point]. In the case of `CC(C)Cn1c(C(C)NC(=O)Cc2ccccc2)nc2ccccc21` (centres undefined), under setting [1], the AC50 was 31.6 µM [rising, single point]. The same measure, in the same setting: the value for `O=C(Cc1ccc(F)cc1)NCc1ccc2c(c1)CCN2C(=O)c1ccc(F)cc1` was 3.98 µM [rising, full curve]; that for `COc1ccccc1N1CCN(CCCCOc2ccc(F)cc2)CC1` was 22.4 µM [rising, single point]; that for `COc1cccc(-n2c(SCC(=O)Nc3c(C)cc(C)cc3C)nc3c([nH]c4ccccc43)c2=O)c1` was 35.5 µM [falling, single point].

Regarding `Cc1ccc(C(c2nnnn2CS(=O)(=O)c2ccc(C)cc2)N2CCCC2)cc1` (centres undefined), the AC50 under setting [2] is 1.26 µM [falling, full curve, poor fit]. Take `CC[N+](CC)(CC)CC[C@](O)(c1ccccc1)C1CCCCC1`: the AC50 runs as follows: under setting [2], 5.01 µM [rising, partial curve, poor fit]; under setting [1], 8.91 µM [falling, single point]. In the case of `COc1cc(NC(=O)Nc2ccc(C)cc2)cc([N+](=O)[O-])c1`, the AC50 under setting [1] is 17.8 µM [rising, partial curve]. As for `CN(C)c1ccc(/C=N/NC(=O)C(=O)/C=C2\NC3(CCCC3)Cc3ccccc32)cc1`, the half-maximal activity concentration (AC50) reads like this: under setting [2], 7.08 µM [rising, partial curve]; under setting [1], 20 µM [rising, partial curve].

As to `O=C(C(Sc1ccccc1)c1ccccc1)N1CCN(c2ccccc2F)CC1` (centres undefined), the AC50 is, setting by setting: under setting [2], 35.5 µM [rising, single point]; under setting [1], 35.5 µM [rising, single point]. Take `CCN(CC)S(=O)(=O)c1cc(C(=O)Nc2ccccc2[N+](=O)[O-])ccc1Cl`: the AC50 is 25.1 µM [falling, single point] under setting [2] and 35.5 µM [falling, single point] under setting [1]. Consider `COc1ccc2[nH]cc(CCNc3nc(-c4ccc(N(C)C)cc4)nc4ccccc34)c2c1`, for which the AC50 under setting [2] is 11.2 µM [falling, partial curve] and the AC50 under setting [1] is 10 µM [falling, partial curve]. Regarding `CCN(CC)CC(=O)Nc1sc2c(c1C(=O)c1ccccc1C)CCC2`, under setting [2], the half-maximal activity concentration (AC50) is 12.6 µM [rising, single point]. Take `CN(C)c1ccc(CNc2ccc3c(c2)ncn3C)cc1`: under setting [1], the AC50 is 35.5 µM [rising, single point]. Consider `CCn1nc(C)c(CNC(=O)CC2C(=O)NCCN2Cc2ccc(C)o2)c1C` (centres undefined), for which the AC50 under setting [2] is 2.82 µM [falling, partial curve, poor fit]. Regarding `C=CCC1S/C(=N/N=C/c2cccs2)NC1=O` (centres undefined), the AC50 under setting [2] is 0.891 µM [falling, full curve, poor fit]. `COc1ccccc1CNc1cc(-c2ccoc2)ncn1`: the AC50 was 17.8 µM [falling, partial curve] under setting [2] and 22.4 µM [falling, partial curve] under setting [1]. Take `CCCC(=O)Nc1nc2ccc(NC(=O)c3ccc(Br)o3)cc2s1`: under setting [1], the AC50 was 25.1 µM [rising, single point]. On to `CC(C)(C)NC(=O)Nc1ccc(Cn2cc(C(F)(F)F)ccc2=O)cc1`, for which the AC50 by setting is: under setting [2], 0.00355 µM [rising, full curve, poor fit]; under setting [1], 0.1 µM [rising, full curve, poor fit]. In the case of `CC(C)Nc1nnc(SCC(=O)NCc2ccc3c(c2)OCO3)s1`, the AC50 under setting [2] is 0.0112 µM [falling, full curve, poor fit]. Turning to `Cc1nonc1OCCNCc1c(C(=O)N(C)C)nc2ccc(Cl)cn12`, the AC50 under setting [2] is 2.82 µM [falling, full curve, poor fit] and the AC50 under setting [1] was 0.891 µM [falling, full curve, poor fit].

For the compound `CCOC(=O)c1sc(C)c2c1NC(c1ccc(Cl)cc1)NC2=O` (centres undefined), the half-maximal activity concentration (AC50) under setting [2] was 3.55 µM [rising, single point]. For `O=C(Cc1ccccc1)Nc1cc(Cl)ccc1Sc1ccccc1`, the AC50 under setting [2] was 22.4 µM [rising, single point]. On to `CN(C)S(=O)(=O)c1ccc(NC(=O)N2CCOCC2)cc1`, for which, under setting [1], the half-maximal activity concentration (AC50) was 3.55 µM [rising, partial curve]. Consider `COc1cccc(CSc2nc3ccccc3cc2C=O)c1`, for which the AC50 under setting [2] is 35.5 µM [rising, single point] and the AC50 under setting [1] was 25.1 µM [rising, single point]. As for `Cc1cccc(OCCCC(=O)Nc2nccs2)c1`, the concentration at half-maximal activity (AC50) under setting [1] is 22.4 µM [rising, partial curve]. `Cc1ccc(C)c(N2CCN(C(=O)c3cc4c(=O)n(Cc5ccccc5)ccc4nc3C)CC2)c1`: the AC50 under setting [2] is 0.00447 µM [falling, full curve, poor fit]. As for `CC(C)(C)NCCCOc1ccc(Cl)cc1C(C)(C)C`, under setting [1], the AC50 is 5.62 µM [rising, single point].

For `Cc1cccc(NS(=O)(=O)c2ccc3[nH]c4c(c3c2)CCCCCC4)c1`, the AC50 is 15.8 µM [falling, partial curve] under setting [2] and 15.8 µM [falling, partial curve] under setting [1].
